The supplement of paper PMC12819154, “High-throughput peptide-centric local stability assay extends protein–ligand identification to membrane proteins, tissues and bacteria” (Nature Structural & Molecular Biology, 2025)
This is one part of the list. Most values lie at the level of the controls, where differences are scatter.

Chains of the proteins cited; added tags and fusions are not shown. Lines headed by an entry give the natural chain unless they say otherwise; changes in a name come on top.
UniProt P33240: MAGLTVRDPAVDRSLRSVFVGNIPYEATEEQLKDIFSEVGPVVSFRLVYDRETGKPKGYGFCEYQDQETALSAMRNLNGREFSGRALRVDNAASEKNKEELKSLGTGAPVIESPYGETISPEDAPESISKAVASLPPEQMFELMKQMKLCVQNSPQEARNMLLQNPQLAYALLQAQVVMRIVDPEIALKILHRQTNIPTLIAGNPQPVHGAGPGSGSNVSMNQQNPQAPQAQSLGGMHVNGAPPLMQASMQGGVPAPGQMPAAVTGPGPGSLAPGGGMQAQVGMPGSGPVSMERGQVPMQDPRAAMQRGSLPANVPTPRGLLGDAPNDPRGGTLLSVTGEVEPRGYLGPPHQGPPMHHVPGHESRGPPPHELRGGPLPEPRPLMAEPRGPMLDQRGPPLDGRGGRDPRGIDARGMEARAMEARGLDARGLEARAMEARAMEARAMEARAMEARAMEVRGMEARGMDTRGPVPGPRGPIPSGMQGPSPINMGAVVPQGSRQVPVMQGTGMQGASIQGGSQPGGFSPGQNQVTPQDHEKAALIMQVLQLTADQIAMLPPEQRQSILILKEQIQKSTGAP
UniProt P40617: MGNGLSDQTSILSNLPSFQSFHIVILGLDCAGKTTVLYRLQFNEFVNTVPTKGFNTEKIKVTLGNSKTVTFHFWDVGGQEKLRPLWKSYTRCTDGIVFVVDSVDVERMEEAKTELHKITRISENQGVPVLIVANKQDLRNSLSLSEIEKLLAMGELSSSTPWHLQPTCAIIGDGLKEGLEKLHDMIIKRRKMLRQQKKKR
UniProt P29374: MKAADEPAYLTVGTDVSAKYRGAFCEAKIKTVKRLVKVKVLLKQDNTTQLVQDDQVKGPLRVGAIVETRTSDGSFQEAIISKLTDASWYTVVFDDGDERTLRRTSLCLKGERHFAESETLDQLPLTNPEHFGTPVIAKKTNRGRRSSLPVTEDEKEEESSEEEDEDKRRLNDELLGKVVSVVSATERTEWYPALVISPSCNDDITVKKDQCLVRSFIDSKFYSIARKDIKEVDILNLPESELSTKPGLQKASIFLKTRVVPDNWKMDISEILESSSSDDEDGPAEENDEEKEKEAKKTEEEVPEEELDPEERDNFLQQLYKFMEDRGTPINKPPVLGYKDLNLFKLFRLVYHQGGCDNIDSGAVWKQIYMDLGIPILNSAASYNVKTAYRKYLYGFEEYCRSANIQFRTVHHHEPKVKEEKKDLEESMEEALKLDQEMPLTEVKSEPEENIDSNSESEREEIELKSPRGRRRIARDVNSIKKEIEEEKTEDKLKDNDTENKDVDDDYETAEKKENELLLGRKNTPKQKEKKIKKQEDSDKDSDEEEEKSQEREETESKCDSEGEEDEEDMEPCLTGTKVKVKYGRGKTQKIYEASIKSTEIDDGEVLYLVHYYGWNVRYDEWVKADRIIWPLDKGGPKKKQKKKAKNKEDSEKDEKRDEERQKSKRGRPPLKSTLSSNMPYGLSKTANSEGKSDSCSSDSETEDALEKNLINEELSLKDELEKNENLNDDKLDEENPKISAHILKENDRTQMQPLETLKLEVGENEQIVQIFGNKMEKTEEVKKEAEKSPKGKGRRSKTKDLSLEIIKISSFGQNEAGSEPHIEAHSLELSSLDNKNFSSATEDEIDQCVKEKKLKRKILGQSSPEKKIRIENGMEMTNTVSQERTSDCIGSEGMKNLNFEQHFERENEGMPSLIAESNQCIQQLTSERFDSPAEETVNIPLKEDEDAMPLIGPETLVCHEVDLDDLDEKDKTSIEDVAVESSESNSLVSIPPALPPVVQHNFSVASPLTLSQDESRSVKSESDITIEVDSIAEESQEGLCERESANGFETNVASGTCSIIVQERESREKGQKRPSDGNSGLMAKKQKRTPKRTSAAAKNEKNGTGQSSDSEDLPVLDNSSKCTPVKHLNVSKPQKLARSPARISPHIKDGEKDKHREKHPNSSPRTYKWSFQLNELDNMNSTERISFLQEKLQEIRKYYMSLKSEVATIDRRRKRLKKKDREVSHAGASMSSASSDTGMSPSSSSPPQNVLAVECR
UniProt P35712: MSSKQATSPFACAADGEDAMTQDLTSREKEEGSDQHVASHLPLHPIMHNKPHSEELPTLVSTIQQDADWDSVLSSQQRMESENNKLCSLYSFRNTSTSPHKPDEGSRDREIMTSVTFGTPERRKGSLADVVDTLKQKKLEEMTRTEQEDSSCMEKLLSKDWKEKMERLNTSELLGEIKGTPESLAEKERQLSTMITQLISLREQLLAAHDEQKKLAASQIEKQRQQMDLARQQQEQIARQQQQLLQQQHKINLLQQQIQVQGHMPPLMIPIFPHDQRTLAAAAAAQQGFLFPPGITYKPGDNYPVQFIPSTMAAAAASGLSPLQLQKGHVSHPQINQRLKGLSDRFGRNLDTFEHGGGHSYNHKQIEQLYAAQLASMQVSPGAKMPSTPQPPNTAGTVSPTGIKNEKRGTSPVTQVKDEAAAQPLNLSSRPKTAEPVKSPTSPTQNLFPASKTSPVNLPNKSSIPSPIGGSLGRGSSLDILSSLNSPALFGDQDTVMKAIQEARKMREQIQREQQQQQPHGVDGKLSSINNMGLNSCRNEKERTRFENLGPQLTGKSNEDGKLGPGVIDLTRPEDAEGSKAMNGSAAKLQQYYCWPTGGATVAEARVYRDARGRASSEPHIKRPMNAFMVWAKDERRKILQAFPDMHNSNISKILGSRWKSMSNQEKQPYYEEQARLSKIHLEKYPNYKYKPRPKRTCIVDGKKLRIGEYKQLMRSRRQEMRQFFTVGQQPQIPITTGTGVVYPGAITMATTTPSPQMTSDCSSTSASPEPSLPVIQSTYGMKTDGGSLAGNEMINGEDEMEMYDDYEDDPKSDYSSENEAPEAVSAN
UniProt P28799: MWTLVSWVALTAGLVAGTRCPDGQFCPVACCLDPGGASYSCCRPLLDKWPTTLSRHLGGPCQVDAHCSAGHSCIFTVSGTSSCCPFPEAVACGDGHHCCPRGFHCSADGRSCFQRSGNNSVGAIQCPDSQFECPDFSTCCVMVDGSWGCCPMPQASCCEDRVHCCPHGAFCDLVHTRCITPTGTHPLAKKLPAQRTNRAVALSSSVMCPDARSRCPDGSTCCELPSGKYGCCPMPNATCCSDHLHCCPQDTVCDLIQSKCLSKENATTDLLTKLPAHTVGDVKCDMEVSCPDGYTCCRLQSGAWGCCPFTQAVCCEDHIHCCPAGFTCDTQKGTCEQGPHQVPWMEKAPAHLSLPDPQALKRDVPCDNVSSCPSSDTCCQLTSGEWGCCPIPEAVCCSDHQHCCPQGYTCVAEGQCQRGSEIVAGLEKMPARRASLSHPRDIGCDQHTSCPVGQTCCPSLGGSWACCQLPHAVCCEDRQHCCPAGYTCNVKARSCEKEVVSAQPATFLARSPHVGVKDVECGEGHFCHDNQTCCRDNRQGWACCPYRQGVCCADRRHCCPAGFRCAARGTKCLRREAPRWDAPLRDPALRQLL
UniProt P41236: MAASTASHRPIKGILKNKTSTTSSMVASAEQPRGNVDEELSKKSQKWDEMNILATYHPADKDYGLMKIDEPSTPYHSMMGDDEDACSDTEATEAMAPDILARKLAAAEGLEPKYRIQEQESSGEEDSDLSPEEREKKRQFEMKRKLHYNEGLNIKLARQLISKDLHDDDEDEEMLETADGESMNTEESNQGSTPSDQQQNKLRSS
UniProt P35244: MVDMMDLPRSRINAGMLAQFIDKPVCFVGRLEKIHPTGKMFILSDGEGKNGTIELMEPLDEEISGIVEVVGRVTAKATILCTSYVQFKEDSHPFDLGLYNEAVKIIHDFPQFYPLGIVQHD
UniProt P42356, whole entry, looked up: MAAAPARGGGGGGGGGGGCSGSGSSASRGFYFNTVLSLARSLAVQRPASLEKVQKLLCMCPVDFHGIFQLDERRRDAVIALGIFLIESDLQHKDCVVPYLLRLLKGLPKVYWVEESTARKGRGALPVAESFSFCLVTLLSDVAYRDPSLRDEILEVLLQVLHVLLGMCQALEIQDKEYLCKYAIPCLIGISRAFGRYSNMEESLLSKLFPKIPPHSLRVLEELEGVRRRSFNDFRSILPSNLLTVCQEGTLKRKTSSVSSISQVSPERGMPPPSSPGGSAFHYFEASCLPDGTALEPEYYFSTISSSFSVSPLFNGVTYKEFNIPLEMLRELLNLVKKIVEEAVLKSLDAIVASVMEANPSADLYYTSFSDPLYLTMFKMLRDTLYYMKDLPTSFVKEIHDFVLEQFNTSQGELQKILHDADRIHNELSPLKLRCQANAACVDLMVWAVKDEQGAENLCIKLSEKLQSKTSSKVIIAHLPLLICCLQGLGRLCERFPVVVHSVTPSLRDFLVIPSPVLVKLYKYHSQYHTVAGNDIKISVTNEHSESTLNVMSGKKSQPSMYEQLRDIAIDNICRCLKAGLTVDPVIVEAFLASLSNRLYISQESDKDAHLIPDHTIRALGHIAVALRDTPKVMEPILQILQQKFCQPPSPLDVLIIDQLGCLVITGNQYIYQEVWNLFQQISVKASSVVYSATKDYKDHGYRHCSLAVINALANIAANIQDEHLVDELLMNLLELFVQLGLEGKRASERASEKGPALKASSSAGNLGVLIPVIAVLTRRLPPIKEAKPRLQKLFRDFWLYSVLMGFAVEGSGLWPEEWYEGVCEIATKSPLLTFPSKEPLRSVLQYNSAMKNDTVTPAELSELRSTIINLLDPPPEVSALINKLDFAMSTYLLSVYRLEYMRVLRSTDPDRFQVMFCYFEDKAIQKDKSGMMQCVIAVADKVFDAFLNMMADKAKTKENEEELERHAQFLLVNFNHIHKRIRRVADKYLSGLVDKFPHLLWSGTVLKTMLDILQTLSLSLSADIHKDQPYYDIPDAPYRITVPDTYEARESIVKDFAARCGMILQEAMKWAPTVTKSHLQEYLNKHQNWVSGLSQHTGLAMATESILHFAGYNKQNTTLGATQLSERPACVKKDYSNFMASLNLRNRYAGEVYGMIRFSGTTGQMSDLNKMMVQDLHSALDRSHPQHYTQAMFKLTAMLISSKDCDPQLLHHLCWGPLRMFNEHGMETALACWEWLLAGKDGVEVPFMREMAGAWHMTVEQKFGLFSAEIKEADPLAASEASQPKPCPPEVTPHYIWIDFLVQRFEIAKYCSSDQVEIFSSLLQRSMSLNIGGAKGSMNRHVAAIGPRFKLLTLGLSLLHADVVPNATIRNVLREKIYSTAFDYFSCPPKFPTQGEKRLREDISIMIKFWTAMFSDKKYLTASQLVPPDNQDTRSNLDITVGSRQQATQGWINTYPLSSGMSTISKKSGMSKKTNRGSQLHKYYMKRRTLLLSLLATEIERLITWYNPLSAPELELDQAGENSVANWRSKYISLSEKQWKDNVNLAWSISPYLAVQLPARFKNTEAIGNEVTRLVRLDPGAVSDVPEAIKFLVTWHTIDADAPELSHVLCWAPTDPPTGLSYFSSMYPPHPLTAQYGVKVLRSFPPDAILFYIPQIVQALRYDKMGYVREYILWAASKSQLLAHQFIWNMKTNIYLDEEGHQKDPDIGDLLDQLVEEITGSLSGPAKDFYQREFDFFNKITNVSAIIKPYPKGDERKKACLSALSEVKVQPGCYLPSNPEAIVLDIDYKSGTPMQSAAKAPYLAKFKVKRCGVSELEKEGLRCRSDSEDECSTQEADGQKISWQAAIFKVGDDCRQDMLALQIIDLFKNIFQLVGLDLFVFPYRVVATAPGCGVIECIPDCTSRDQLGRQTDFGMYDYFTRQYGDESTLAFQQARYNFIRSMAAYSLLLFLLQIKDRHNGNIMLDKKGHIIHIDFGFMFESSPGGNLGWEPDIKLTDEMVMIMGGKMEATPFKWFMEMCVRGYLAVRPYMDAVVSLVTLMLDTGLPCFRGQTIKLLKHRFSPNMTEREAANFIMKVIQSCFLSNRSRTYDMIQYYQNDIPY
UniProt P36941: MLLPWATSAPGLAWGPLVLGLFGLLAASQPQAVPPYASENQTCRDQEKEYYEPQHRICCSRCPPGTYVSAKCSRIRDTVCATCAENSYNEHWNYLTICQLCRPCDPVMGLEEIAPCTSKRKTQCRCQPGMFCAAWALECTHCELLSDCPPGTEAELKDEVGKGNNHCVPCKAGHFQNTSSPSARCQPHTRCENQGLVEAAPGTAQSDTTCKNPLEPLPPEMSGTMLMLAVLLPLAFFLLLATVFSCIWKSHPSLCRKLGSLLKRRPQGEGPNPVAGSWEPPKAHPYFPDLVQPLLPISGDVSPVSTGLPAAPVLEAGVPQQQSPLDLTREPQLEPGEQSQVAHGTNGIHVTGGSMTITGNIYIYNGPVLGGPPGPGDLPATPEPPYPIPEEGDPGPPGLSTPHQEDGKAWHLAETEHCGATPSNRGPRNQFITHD
UniProt P40261: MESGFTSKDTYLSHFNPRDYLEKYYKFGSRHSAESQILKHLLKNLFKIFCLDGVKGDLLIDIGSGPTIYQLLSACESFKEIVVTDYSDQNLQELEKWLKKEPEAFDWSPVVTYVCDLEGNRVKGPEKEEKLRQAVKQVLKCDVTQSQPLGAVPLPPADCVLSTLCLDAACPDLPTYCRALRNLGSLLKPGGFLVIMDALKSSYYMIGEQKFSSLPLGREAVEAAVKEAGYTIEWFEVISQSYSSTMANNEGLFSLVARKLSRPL

Each target was assayed with CN[C@@H]1C[C@H]2O[C@@](C)([C@@H]1OC)n1c3ccccc3c3c4c(c5c6ccccc6n2c5c31)C(=O)NC4 [staurosporine] (assay: log2 fold change of tryptic peptide abundance, ligand vs vehicle (limited proteolysis) (log2 ratio); higher = more trypsin-susceptible (destabilized)). Conditions: ligand concentration: 20 uM; sample: K562 cleared lysate; digestion: 4 min, 22 C (HT-PELSA RT4min, Orbitrap Astral).

Target	log2 fold change
CSTF2 (peptide sequence: GYLGPPHQGPPMHHVPGHESR, peptide start residue: 345) (UniProt P33240)	-0.126
SHMT2 (peptide sequence: IMGLDLPDGGHLTHGYMSDVKR, peptide start residue: 161) (UniProt P34897)	-0.392
PTPN9 (peptide sequence: QGIYEEYEDIRR, peptide start residue: 301) (UniProt P43378)	-0.199
PEBP1 (peptide sequence: LYEQLSGK, peptide start residue: 180) (UniProt P30086)	0.0451
STAT6 (peptide sequence: AVMEQFR, peptide start residue: 109) (UniProt P42226)	0.208
RFC3 (peptide sequence: ELYGVGVEK, peptide start residue: 58) (UniProt P40938)	0.381
SNCA (peptide sequence: EGVVHGVATVAEK, peptide start residue: 46) (UniProt P37840)	0.18
ARL4A (peptide sequence: NSLSLSEIEK, peptide start residue: 140) (UniProt P40617)	0.331
ARID4A (peptide sequence: ISFLQEK, peptide start residue: 1186) (UniProt P29374)	0.399
SOAT1 (peptide sequence: LTAEAEELKPFFMK, peptide start residue: 54) (UniProt P35610)	0.188
HADHA (peptide sequence: THINYGVKGDVAVVR, peptide start residue: 39) (UniProt P40939)	-0.912
PTPN6 (peptide sequence: GLDCDIDIQK, peptide start residue: 477) (UniProt P29350)	-0.446
PCGF2 (peptide sequence: SDKTLQDIVYK, peptide start residue: 71) (UniProt P35227)	-1.17
UniProt P35030 (peptide sequence: DTLDNDIMLIK, peptide start residue: 159)	-0.0647
GDI1 (peptide sequence: RKQNDVFGEAEQ, peptide start residue: 436) (UniProt P31150)	-0.123
SERPINB6 (peptide sequence: LVLVNAVYFR, peptide start residue: 161) (UniProt P35237)	0.467
SLC7A1 (peptide sequence: VLLNIGQQMLRR, peptide start residue: 5) (UniProt P30825)	-0.359
PPP1CC (peptide sequence: NVQLQENEIR, peptide start residue: 27) (UniProt P36873)	0.584
PHB (peptide sequence: VLPSITTEILK, peptide start residue: 118) (UniProt P35232)	-0.128
BRCA1 (peptide sequence: NLLEENFEEHSMSPER, peptide start residue: 997) (UniProt P38398)	0.317

Target	log2 fold change
CORO1A (peptide sequence: RLDRLEETVQAK, peptide start residue: 450) (UniProt P31146)	0.826
SOX6 (peptide sequence: SSIPSPIGGSLGR, peptide start residue: 462) (UniProt P35712)	0.2
GRN (peptide sequence: CITPTGTHPLAK, peptide start residue: 178) (UniProt P28799)	-0.969
PPP1R2 (peptide sequence: GNVDEELSK, peptide start residue: 34) (UniProt P41236)	0.252
MCM5 (peptide sequence: RLAALPNVYEVISK, peptide start residue: 324) (UniProt P33992)	0.239
HNRNPH1 (peptide sequence: GLPWSCSADEVQR, peptide start residue: 17) (UniProt P31943)	-0.38
CDC25A (peptide sequence: GCLHSHGLQEGK, peptide start residue: 158) (UniProt P30304)	0.248
RPA3 (peptide sequence: INAGMLAQFIDKPVCFVGRLEK, peptide start residue: 12) (UniProt P35244)	-0.241
RFC4 (peptide sequence: IVILDEADSMTSAAQAALR, peptide start residue: 146) (UniProt P35249)	0.363
PHKA1 (peptide sequence: FGTMTYLSK, peptide start residue: 1197) (UniProt P46020)	0.316
ATIC (peptide sequence: EALGIPAAASFK, peptide start residue: 255) (UniProt P31939)	-0.191
ECE1 (peptide sequence: HTLGENIADNGGLK, peptide start residue: 663) (UniProt P42892)	0.416
SLC19A1 (peptide sequence: AAQALSVQDK, peptide start residue: 480) (UniProt P41440)	-0.206
MYH9 (peptide sequence: LKNKHEAMITDLEER, peptide start residue: 1021) (UniProt P35579)	-0.203
UniProt P42356 (peptide sequence: ITNVSAIIKPYPK, peptide start residue: 1741)	-0.416
ACAA2 (peptide sequence: TNVNGGAIALGHPLGGSGSR, peptide start residue: 341) (UniProt P42765)	-0.289
LTBR (peptide sequence: AWHLAETEHCGATPSNR, peptide start residue: 409) (UniProt P36941)	0.152
PRDX2 (peptide sequence: EGGLGPLNIPLLADVTR, peptide start residue: 93) (UniProt P32119)	0.348
NNMT (peptide sequence: MESGFTSK, peptide start residue: 1) (UniProt P40261)	0.241

Three records drawn at random from the list so far:
Target	log2 fold change
ARL4A (peptide sequence: NSLSLSEIEK, peptide start residue: 140) (UniProt P40617)	0.331
MCM5 (peptide sequence: RLAALPNVYEVISK, peptide start residue: 324) (UniProt P33992)	0.239
CDC25A (peptide sequence: GCLHSHGLQEGK, peptide start residue: 158) (UniProt P30304)	0.248
